Experimental data reported in the supplement of paper PMC7238544.
Where a name gives a salt, the structure may show the parent alone. ± gives the standard deviation of the averaged measurements. The list shows a part of the results. The data scatter; read single values as rough.

Legend:
[1] = tested on: hAMSC donor 1; assay: Hoechst total cell count ratio vs vehicle control; higher = more cells (less toxicity)
[2] = tested on: hAMSC donor 2; assay: as above
[3] = tested on: hAMSC donor 1; assay: transgenic luciferase activity (RLU/mg protein) fold change vs vehicle control (ratio); higher = more transgene expression
[4] = tested on: hAMSC donor 2; assay: as above
[5] = tested on: hAMSC donor 1; assay: transfection efficiency (EGFP+ cells / Hoechst count) fold change vs vehicle control (ratio); hAMSC are human adipose-derived mesenchymal stem cells given an EGFP-luciferase plasmid by lipofection; higher = enhanced transfection
[6] = tested on: hAMSC donor 2; assay: as above
[7] = priming compound concentration 0.2 µM
[8] = priming compound concentration 1.7 µM
[9] = priming compound concentration 13 µM

Compound	Hoechst total cell count ratio [1, 7]	Hoechst total cell count ratio [1, 8]	Hoechst total cell count ratio [1, 9]	Hoechst total cell count ratio [2, 7]	Hoechst total cell count ratio [2, 8]	Hoechst total cell count ratio [2, 9]	transgenic luciferase activity [3, 7]	transgenic luciferase activity [3, 8]	transgenic luciferase activity [3, 9]	transgenic luciferase activity [4, 7]	transgenic luciferase activity [4, 8]	transgenic luciferase activity [4, 9]	transfection efficiency [5, 7]	transfection efficiency [5, 8]	transfection efficiency [5, 9]	transfection efficiency [6, 7]	transfection efficiency [6, 8]	transfection efficiency [6, 9]
COc1ccccc1N1CCN(CCCNc2cc(=O)n(C)c(=O)n2C)CC1 [Urapidil hydrochloride]	1.18 ± 0.046	1.28 ± 0.096	1.2 ± 0.21	1.17 ± 0.19	1.07 ± 0.14	1.02 ± 0.057	0.799 ± 0.17	0.989 ± 0.066	0.393 ± 0.12	0.981 ± 0.14	0.521 ± 0.057	0.736 ± 0.033	0.816 ± 0.18	1.04 ± 0.11	1.31 ± 0.17	1.01 ± 0.12	0.949 ± 0.044	1.08 ± 0.031
Cc1[nH]cnc1CN1CCc2c(c3ccccc3n2C)C1=O [Alosetron monohydrochloride]	1.15 ± 0.041	1.21 ± 0.051	1.1 ± 0.023	1.11 ± 0.22	0.971 ± 0.023	1.01 ± 0.043	0.663 ± 0.45	0.752 ± 0.12	0.225 ± 0.15	0.594 ± 0.14	1.29 ± 0.14	1.1 ± 0.089	1.27 ± 0.21	0.89 ± 0.3	1.24 ± 0.16	1.01 ± 0.22	1.11 ± 0.045	0.991 ± 0.2
CCCCNc1cc(C(=O)O)cc(S(N)(=O)=O)c1Oc1ccccc1 [Bumetanide]	1.2 ± 0.057	1.35 ± 0.04	1.17 ± 0.031	1.13 ± 0.073	1.11 ± 0.042	1.43 ± 0.27	0.788 ± 0.43	0.717 ± 0.16	1.16 ± 0.45	0.521 ± 0.16	1.35 ± 0.53	0.568 ± 0.17	1.16 ± 0.26	1.04 ± 0.38	0.744 ± 0.32	0.844 ± 0.13	0.984 ± 0.11	1 ± 0.31
CC(=O)N1CCN(c2ccc(OCC3COC(Cn4ccnc4)(c4ccc(Cl)cc4Cl)O3)cc2)CC1 (centres undefined) [Ketoconazole]	1.08 ± 0.18	1.28 ± 0.094	1.16 ± 0.14	1.67 ± 0.33	1.08 ± 0.021	0.933 ± 0.039	1.94 ± 0.34	3.71 ± 0.21	2.34 ± 1.5	1.13 ± 0.1	1.81 ± 0.44	4.2 ± 1.2	1.56 ± 0.33	1.68 ± 0.34	1.71 ± 0.33	1.17 ± 0.27	1.33 ± 0.11	1.7 ± 0.088
Nc1c2c(nc3c1CCC3)CCCC2 [Ipidacrine]	1.03 ± 0.15	1.25 ± 0.17	1.01 ± 0.2	1.46 ± 0.54	1.03 ± 0.021	1.05 ± 0.077	0.899 ± 0.41	1.04 ± 0.23	0.227 ± 0.1	0.612 ± 0.15	0.603 ± 0.16	1.16 ± 1.1	1.53 ± 0.37	0.878 ± 0.3	1.02 ± 0.15	0.766 ± 0.12	1.16 ± 0.14	1.1 ± 0.42
Nc1ccn([C@H]2CC[C@@H](CO)O2)c(=O)n1 [Zalcitabine]	1.15 ± 0.053	1.07 ± 0.2	1.11 ± 0.13	1.23 ± 0.36	0.905 ± 0.1	1.16 ± 0.12	0.423 ± 0.13	0.677 ± 0.11	0.835 ± 0.29	0.813 ± 0.19	1.06 ± 0.041	1.81 ± 0.69	1.27 ± 0.23	1.02 ± 0.46	0.991 ± 0.28	0.951 ± 0.18	1.52 ± 0.1	1.49 ± 0.076
CC(C)(C)NC(=O)[C@@H]1CN(Cc2cccnc2)CCN1C[C@@H](O)C[C@@H](Cc1ccccc1)C(=O)N[C@H]1c2ccccc2C[C@H]1O [Indinavir sulfate]	0.972 ± 0.3	1.39 ± 0.062	1.15 ± 0.23	1.08 ± 0.47	1.11 ± 0.2	1.08 ± 0.021	1.1 ± 0.49	1.36 ± 0.42	1.1 ± 1.2	1.17 ± 0.56	0.408 ± 0.024	0.527 ± 0.045	1.09 ± 0.22	1.01 ± 0.13	1.35 ± 0.7	0.983 ± 0.082	1.14 ± 0.21	1.06 ± 0.051
O=C(N[C@H](CO)[C@H](O)c1ccc([N+](=O)[O-])cc1)C(Cl)Cl [Chloramphenicol]	1.27 ± 0.13	1.24 ± 0.14	1.21 ± 0.03	0.919 ± 0.091	0.993 ± 0.082	1.52 ± 0.1	1.63 ± 0.83	1.32 ± 0.66	2.11 ± 0.92	0.936 ± 0.68	0.762 ± 0.088	1.48 ± 0.21	1.14 ± 0.37	0.848 ± 0.24	1.67 ± 0.93	1.28 ± 0.47	0.982 ± 0.11	1.04 ± 0.14
CN1CCCC(n2nc(Cc3ccc(Cl)cc3)c3ccccc3c2=O)CC1 (centres undefined) [Azelastine hydrochloride]	1.24 ± 0.024	1.21 ± 0.16	1.14 ± 0.028	1.19 ± 0.17	1.04 ± 0.046	1.86 ± 0.2	0.714 ± 0.12	0.746 ± 0.29	1.6 ± 1.6	0.693 ± 0.14	1 ± 0.43	0.677 ± 0.14	1.25 ± 0.29	1.16 ± 0.45	0.684 ± 0.29	0.77 ± 0.16	1.02 ± 0.08	0.641 ± 0.077
CCC(=O)OCC(=O)[C@@]1(OC(=O)CC)[C@@H](C)C[C@H]2[C@@H]3CCC4=CC(=O)C=C[C@]4(C)[C@@]3(Cl)[C@@H](O)C[C@@]21C [Beclomethasone dipropionate]	1.24 ± 0.076	1.25 ± 0.038	1 ± 0.065	1.21 ± 0.23	1.31 ± 0.037	1.17 ± 0.19	4.06 ± 0.63	7.45 ± 2	7.14 ± 0.47	1.68 ± 0.85	4.08 ± 0.24	6.94 ± 4.3	1.95 ± 0.31	1.53 ± 0.69	2.39 ± 0.54	1.69 ± 0.51	1.58 ± 0.29	2.42 ± 0.29
CC(C)C[C@H](NC(=O)[C@@H](O)[C@H](N)Cc1ccccc1)C(=O)O [Bestatin]	1.18 ± 0.019	1.3 ± 0.049	1.1 ± 0.046	0.955 ± 0.17	1.16 ± 0.17	1.28 ± 0.28	0.842 ± 0.26	0.578 ± 0.018	1.01 ± 0.29	0.988 ± 0.5	1.04 ± 0.26	1.04 ± 0.28	1.26 ± 0.23	0.685 ± 0.063	1.33 ± 0.38	1.32 ± 0.26	1.07 ± 0.26	1.12 ± 0.39
C[C@]12CC[C@@H]3c4ccc(O)cc4CC[C@H]3[C@@H]1CC[C@@H]2O [Beta-estradiol]	1.11 ± 0.075	1.5 ± 0.065	1.14 ± 0.081	1.39 ± 0.21	0.873 ± 0.029	0.893 ± 0.055	0.667 ± 0.21	0.873 ± 0.24	0.546 ± 0.27	0.821 ± 0.17	0.782 ± 0.059	1.08 ± 0.24	1.18 ± 0.34	0.887 ± 0.23	1.35 ± 0.39	0.895 ± 0.18	1.11 ± 0.29	1.1 ± 0.056
CCCCN1CCCC1CNC(=O)c1cc(C#N)c2ccccc2c1OC (centres undefined) [Nafadotride]	1.13 ± 0.25	1.39 ± 0.2	1.13 ± 0.16	1.48 ± 0.26	1.07 ± 0.028	1.11 ± 0.048	0.558 ± 0.31	1.73 ± 1.4	1.94 ± 0.48	1.04 ± 0.34	0.855 ± 0.13	0.685 ± 0.12	0.677 ± 0.17	0.998 ± 0.12	1.58 ± 0.53	0.962 ± 0.23	1.44 ± 0.039	0.997 ± 0.069

For reference, 2 of the compounds above.
Compound	Hoechst total cell count ratio [1, 7]	Hoechst total cell count ratio [1, 8]	Hoechst total cell count ratio [1, 9]	Hoechst total cell count ratio [2, 7]	Hoechst total cell count ratio [2, 8]	Hoechst total cell count ratio [2, 9]	transgenic luciferase activity [3, 7]	transgenic luciferase activity [3, 8]	transgenic luciferase activity [3, 9]	transgenic luciferase activity [4, 7]	transgenic luciferase activity [4, 8]	transgenic luciferase activity [4, 9]	transfection efficiency [5, 7]	transfection efficiency [5, 8]	transfection efficiency [5, 9]	transfection efficiency [6, 7]	transfection efficiency [6, 8]	transfection efficiency [6, 9]
CCCCNc1cc(C(=O)O)cc(S(N)(=O)=O)c1Oc1ccccc1 [Bumetanide]	1.2 ± 0.057	1.35 ± 0.04	1.17 ± 0.031	1.13 ± 0.073	1.11 ± 0.042	1.43 ± 0.27	0.788 ± 0.43	0.717 ± 0.16	1.16 ± 0.45	0.521 ± 0.16	1.35 ± 0.53	0.568 ± 0.17	1.16 ± 0.26	1.04 ± 0.38	0.744 ± 0.32	0.844 ± 0.13	0.984 ± 0.11	1 ± 0.31
CC(=O)N1CCN(c2ccc(OCC3COC(Cn4ccnc4)(c4ccc(Cl)cc4Cl)O3)cc2)CC1 (centres undefined) [Ketoconazole]	1.08 ± 0.18	1.28 ± 0.094	1.16 ± 0.14	1.67 ± 0.33	1.08 ± 0.021	0.933 ± 0.039	1.94 ± 0.34	3.71 ± 0.21	2.34 ± 1.5	1.13 ± 0.1	1.81 ± 0.44	4.2 ± 1.2	1.56 ± 0.33	1.68 ± 0.34	1.71 ± 0.33	1.17 ± 0.27	1.33 ± 0.11	1.7 ± 0.088
